According to US20250304571A1, “BIOLOGICALLY ACTIVE COMPOUNDS AND METHODS THEREOF” (Suzhou Keen Therapeutics Co., Ltd., priority 2022, published 2025):
The name of at least one read-out is uncertain.

System: 786-O cells
Assay: Anti-proliferation activity in 786-O cells in the presence of a ferroptosis inhibitor (Ferrostatin-1 or Liproxstatin-1)
Format: cell-based
Conditions: Liproxstatin-1 (2 μM)
Description: In one assessment, cells (KP4, 786-0 and HT-1080) were seeded (700 cells/well, 1000 cells/well or 3000 cells/well) in 384-well or 96-well plates and incubated at 37° C./5% CO2 for 22-24 hours. A series of 8 different concentrations of compound stocks were created by 5-fold serial dilution in DMSO. These compounds were further diluted in culture media and were then added to cells (final concentrations: 100 μM, 20 μM, 4 μM, 0.8 μM, 0.16 μM, […].). After 72 hours of incubation, 30 μL of CellTiter Glo reagent (Promega) was added to each well and luminescence was measured after 10 minutes using SpectraMax M5/M5e (Molecular Devices). Luminescence from cells treated with DMSO alone was set as background and % of inhibition was calculated as follows: […]
Anti-proliferation activity of various compounds was also tested in the presence of an ferroptosis inhibitor, Ferrostatin-1 (2 μM) or Liproxstatin-1 (2 μM). Certain results are provided in Table 4 and Table 5 as examples. “A” indicates an IC50≤100 nM; “B” indicates an IC50 of >100 nM and ≤500 nM; “C” indicates an IC50>500 nM and ≤5 μM; and “D” indicates an IC50>5 μM.

CN(C)C(=N)OCc1nc(N)c2c(n1)N(c1ccc(Oc3ccccc3)cc1)CC2(C)C [Compound E1]
IC50: > 5 µM
